In patent US20220074941A1, “HSP90 COMBINATION THERAPY” (Sloan-Kettering Institute for Cancer Research, priority 2011, published 2022):

System: Hsp90 complexes in K562 cell extract
Test: Nano-LC-MS/MS of PU-beads pull-downs
Type: binding
Conditions: for Matched Peptides by Fraction JA06 / Matched Peptides by Fraction JA05 / Matched Peptides by Fraction JA04 / Matched Peptides by Fraction JA03 / Matched Peptides by Fraction JA07 / Matched Peptides by Fraction JA13 / Matched Peptides by Fraction JA11 / Matched Peptides by Fraction JA10 / Matched Peptides by Fraction JA14 / MAXIMUM matched peptides / Matched Peptides by Fraction JA12 / Matched Peptides by Fraction JA01 / Matched Peptides by Fraction JA08 / Matched Peptides by Fraction JA02 / Matched Peptides by Fraction JA09: PU-beads pull-down; for Matched Peptides by Fraction JA06: Run1, gel size cut 40-60; for Matched Peptides by Fraction JA05: Run1, gel size cut 60-80; for Matched Peptides by Fraction JA04: Run1, gel size cut 80-110; for Matched Peptides by Fraction JA03: Run1, gel size cut 110-150; for Matched Peptides by Fraction JA07: Run1, gel size cut <40; for Matched Peptides by Fraction JA13: Run2, gel size cut 40-60; for Matched Peptides by Fraction JA11: Run2, gel size cut 80-110; for Matched Peptides by Fraction JA10: Run2, gel size cut 110-150; for Matched Peptides by Fraction JA14: Run2, gel size cut <40; for MAXIMUM matched peptides: maximum over fractions JA01-JA14; for Total fmol: protein isolated in PU-beads pull-downs, Waters Xevo QTof MS; for Matched Peptides by Fraction JA12: Run2, gel size cut 60-80; for Matched Peptides by Fraction JA01: Run1, gel size cut >200; for Matched Peptides by Fraction JA08: Run2, gel size cut >200; for Matched Peptides by Fraction JA02: Run1, gel size cut 150-200; for Matched Peptides by Fraction JA09: Run2, gel size cut 150-200
Procedure: Protein cargo isolated from cell lysate with PU-beads or control-beads was subjected to proteomic analysis by nano liquid chromatography coupled to tandem mass spectrometry (nano LC-MS/MS). Initial protein identification was performed using the Mascot search engine, and was further evaluated using Scaffold Proteome Software (Tables 5a-d).
Lysates prepared as mentioned above were first pre-cleaned by incubation with control beads overnight at 4° C. […] Beads were washed with lysis buffer, proteins eluted by boiling in 2% SDS, separated on a denaturing gel and Coomassie stained according to manufacturer's procedure (Biorad). […] Analyses of the batch purified pools were done using a QSTAR-Elite hybrid quadrupole time-of-flight mass spectrometer (QTof MS) (AB/MDS Sciex), equipped with a nano spray ion source. Peptide mixtures (in 20 μL) are loaded onto a trapping guard column (0.3×5-mm PepMap C18 100 cartridge from LC Packings) using an Eksigent nano MDLC system (Eksigent Technologies, Inc) at a flow rate of 20 μL/min. […] Electrospray ionization (ESI) needle voltage was set at about 1800 V. The mass analyzer is operated in automatic, data-dependent MS/MS acquisition mode, with the threshold set to 10 counts per second of doubly or triply charged precursor ions selected for fragmentation scans. Survey scans of 0.25 sec are recorded from 400 to 1800 amu; up to 3 MS/MS scans are then collected sequentially for the selected precursor ions, recording from 100 to 1800 amu. The collision energy is automatically adjusted in accordance with the m/z value of the precursor ions selected for MS/MS. Selected precursor ions are excluded from repeated selection for 60 sec after the end of the corresponding fragmentation duty cycle. […] One missed tryptic cleavage site was allowed, precursor ion mass tolerance=0.4 Da fragment ion mass tolerance=0.4 Da, protein modifications were allowed for Met-oxide, Cys-acrylamide and N-terminal acetylation. MudPit scoring was typically applied with ‘require bold red’ activated, and using significance threshold score p<0.05. Unique peptide counts (or ‘spectral counts’) and percent sequence coverages for all identified proteins were exported to Scaffold Proteome Software (version 2_06_01, www.proteomesoftware.com) for further bioinformatic analysis (Table 5a). Using output from Mascot, Scaffold validates, organizes, and interprets mass spectrometry data, allowing more easily to manage large amounts of data, to compare samples, and to search for protein modifications.

Substance | Matched Peptides by Fraction JA06 | Matched Peptides by Fraction JA13 | MAXIMUM matched peptides | Total fmol [fmol] | also measured
Endoplasmin; GRP94 | 14 | 20 | 79 | 127.8154 | Matched Peptides by Fraction JA05: 22; Matched Peptides by Fraction JA04: 79; Matched Peptides by Fraction JA03: 21; Matched Peptides by Fraction JA07: 4; Matched Peptides by Fraction JA11: 71; Matched Peptides by Fraction JA10: 48; Matched Peptides by Fraction JA14: 7
Histone deacetylase 2; HDAC2 |  |  | 11 | 15.8525 | Matched Peptides by Fraction JA05: 7; Matched Peptides by Fraction JA12: 11
Growth factor receptor-bound protein 2; Grb2 |  |  | 16 | 20.7753 | Matched Peptides by Fraction JA07: 15; Matched Peptides by Fraction JA14: 16
Mitotic checkpoint protein BUB3 | 8 | 10 | 10 | 12.0013 | 
Proto-oncogene serine/threonine-protein kinase pim-1 |  |  | 4 | 0.6796 | Matched Peptides by Fraction JA14: 4
Regulatory-associated protein of mTOR; RAPTOR |  |  | 14 | 4.8217 | Matched Peptides by Fraction JA03: 13; Matched Peptides by Fraction JA10: 14
Filamin-A |  |  | 46 | 8.4872 | Matched Peptides by Fraction JA01: 42; Matched Peptides by Fraction JA08: 46
14-3-3 protein gamma; YWHAG |  |  | 12 | 25.6664 | Matched Peptides by Fraction JA07: 12; Matched Peptides by Fraction JA14: 12
Histone deacetylase 6; HDAC6 |  |  | 11 | 8.6654 | Matched Peptides by Fraction JA02: 11; Matched Peptides by Fraction JA09: 9
Activator of 90 kDa heat shock protein ATPase homolog 1; AHSA1 | 12 | 12 | 12 | 19.5699 | 
ELAV-like protein 1 |  |  | 21 | 55.2953 | Matched Peptides by Fraction JA07: 20; Matched Peptides by Fraction JA14: 21
5′-AMP-activated protein kinase subunit gamma-1; PRKAG1 |  |  | 19 | 25.9468 | Matched Peptides by Fraction JA07: 19; Matched Peptides by Fraction JA14: 19
Serine/threonine-protein kinase mTOR |  |  | 48 | 16.4969 | Matched Peptides by Fraction JA02: 18; Matched Peptides by Fraction JA01: 22; Matched Peptides by Fraction JA09: 16; Matched Peptides by Fraction JA08: 48
Mitogen-activated protein kinase 14; p38 | 9 | 11 | 11 | 2.1763 | 
E3 ubiquitin-protein ligase CHIP |  |  | 14 | 30.9572 | Matched Peptides by Fraction JA07: 14; Matched Peptides by Fraction JA14: 12
Signal transducer and activator of transcription 5B |  |  | 64 | 21.2998 | Matched Peptides by Fraction JA04: 64; Matched Peptides by Fraction JA11: 62
Mitogen-activated protein kinase kinase kinase 4; MEKK4 |  |  | 11 | 4.3965 | Matched Peptides by Fraction JA02: 6; Matched Peptides by Fraction JA09: 11
Histone deacetylase 1; HDAC1 |  |  | 16 | 19.2088 | Matched Peptides by Fraction JA05: 11; Matched Peptides by Fraction JA12: 16
Heat shock 70 kDa protein 1A/1B |  |  | 82 | 115.7597 | Matched Peptides by Fraction JA05: 65; Matched Peptides by Fraction JA12: 82
DnaJ homolog subfamily A member 2 | 23 | 22 | 23 | 31.2111 | 
Ribosomal protein S6 kinase alpha-3; RSK2 |  |  | 20 | 11.9267 | Matched Peptides by Fraction JA04: 20; Matched Peptides by Fraction JA11: 15
Protein SET | 7 | 9 | 9 | 21.0046 | 
Serine/threonine-protein kinase ATR |  |  | 10 | 1.0124 | Matched Peptides by Fraction JA01: 10
Regulator of differentiation 1′ ROD1 |  |  | 13 | 0.5622 | Matched Peptides by Fraction JA12: 13
Interleukin enhancer-binding factor 2; ILF2 | 25 | 20 | 25 | 48.8644 | 
Serine/threonine-protein phosphatase 2A 65 kDa regulatory subunit A alpha isoform |  | 11 | 78 | 125.6820 | Matched Peptides by Fraction JA05: 78; Matched Peptides by Fraction JA12: 76
Mitogen-activated protein kinase 1; MAPK1; ERK-2 | 79 | 65 | 79 | 79.3199 | 
Heat shock cognate 71 kDa protein |  |  | 105 | 211.9690 | Matched Peptides by Fraction JA05: 73; Matched Peptides by Fraction JA12: 105
Tyrosine-protein phosphatase non-receptor type 1; PTPN1 | 9 |  | 9 | 3.5169 | 
Heat shock 70 kDa protein 6 |  |  | 44 | 1.6158 | Matched Peptides by Fraction JA05: 39; Matched Peptides by Fraction JA12: 44
